Substitutions are numbered along the chain they refer to. Results are given in words; binding and its absence hold for the method and conditions named. Binding seen in cells or lysates may run through a third protein. Some entries that bind do so weakly or less than the wild type. Tags and fused reporters may be left off the sequences shown.
Legend:
Experiment in all cases: pull-down; His-tagged protein co-expressed with the untagged partner in E. coli; membranes solubilised in DDM; His-tagged protein held on a HisTrap column (50 mM Tris-HCl pH 7.5, 300 mM NaCl, 10% glycerol, 1 mM DDM, 50 mM imidazole), eluted with an imidazole gradient; SDS-PAGE with Coomassie, Bocillin FL fluorescence or anti-HA blot
His-FtsW A135T (E. coli) = target: T1, His-FtsW A135T (E. coli) (UniProt P0ABG4)
T1 sequence: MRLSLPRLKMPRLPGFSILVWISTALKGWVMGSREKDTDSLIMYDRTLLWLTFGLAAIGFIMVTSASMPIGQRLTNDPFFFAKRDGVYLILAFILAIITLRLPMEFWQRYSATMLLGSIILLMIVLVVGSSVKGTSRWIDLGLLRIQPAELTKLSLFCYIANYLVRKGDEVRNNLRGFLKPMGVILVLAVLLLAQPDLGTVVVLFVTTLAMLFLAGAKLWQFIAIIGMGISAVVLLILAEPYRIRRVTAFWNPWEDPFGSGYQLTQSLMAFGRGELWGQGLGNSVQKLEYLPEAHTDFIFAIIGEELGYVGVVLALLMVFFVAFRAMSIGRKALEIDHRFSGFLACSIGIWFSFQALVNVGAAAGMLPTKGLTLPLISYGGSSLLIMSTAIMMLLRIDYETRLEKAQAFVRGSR

His-FtsW G371S (E. coli) = target: T2, His-FtsW G371S (E. coli) (UniProt P0ABG4)
T2 sequence: T1 sequence with T135A, G371S

His-FtsW G381D (E. coli) = target: T3, His-FtsW G381D (E. coli) (UniProt P0ABG4)
T3 sequence: T1 sequence with T135A, G381D

His-FtsW Q147E (E. coli) = target: T4, His-FtsW Q147E (E. coli) (UniProt P0ABG4)
T4 sequence: T1 sequence with T135A, Q147E

His-FtsW Y242H (E. coli) = target: T5, His-FtsW Y242H (E. coli) (UniProt P0ABG4)
T5 sequence: T1 sequence with T135A, Y242H

Measured: binding

B1: FtsI(PBP3), untagged (E. coli) (enzyme, UniProt P0AD68 1-577)
chain: MKAAAKTQKPKRQEEHANFISWRFALLCGCILLALAFLLGRVAWLQVISPDMLVKEGDMRSLRVQQVSTSRGMITDRSGRPLAVSVPVKAIWADPKEVHDAGGISVGDRWKALANALNIPLDQLSARINANPKGRFIYLARQVNPDMADYIKKLKLPGIHLREESRRYYPSGEVTAHLIGFTNVDSQGIEGVEKSFDKWLTGQPGERIVRKDRYGRVIEDISSTDSQAAHNLALSIDERLQALVYRELNNAVAFNKAESGSAVLVDVNTGEVLAMANSPSYNPNNLSGTPKEAMRNRTITDVFEPGSTVKPMVVMTALQRGVVRENSVLNTIPYRINGHEIKDVARYSELTLTGVLQKSSNVGVSKLALAMPSSALVDTYSRFGLGKATNLGLVGERSGLYPQKQRWSDIERATFSFGYGLMVTPLQLARVYATIGSYGIYRPLSITKVDPPVPGERVFPESIVRTVVHMMESVALPGGGGVKAAIKGYRIAIKTGTAKKVGPDGRYINKYIAYTAGVAPASQPRFALVVVINDPQAGKYYGGAVSAPVFGAIMGGVLRTMNIEPDALTTGDKNEFV
binds: all assays above

— article PMC8765783, “Identification of the potential active site of the septal peptidoglycan polymerase FtsW” (PLoS Genetics, 2022)
